The values below come from US12729225B2, “Non-canonical SWI/SNF complex and uses thereof” (Dana-Farber Cancer Institute, Inc., priority 2018, dated 2026).

The labels stand for the following.
B1: CIRH1A (protein, UniProt Q969X6 1-686, looked up)
U3 small nucleolar …: MGEFKVHRVRFFNYVPSGIRCVAYNNQSNRLAVSRTDGTVEIYNLSANYFQEKFFPGHESRATEALCWAEGQRLFSAGLNGEIMEYDLQALNIKYAMDAFGGPIWSMAASPSGSQLLVGCEDGSVKLFQITPDKIQFERNFDRQKSRILSLSWHPSGTHIAAGSIDYISVFDVKSGSAVHKMIVDRQYMGVSKRKCIVWGVAFLSDGTIISVDSAGKVQFWDSATGTLVKSHLIANADVQSIAVADQEDSFVVGTAEGTVFHFQLVPVTSNSSEKQWVRTKPFQHHTHDVRTVAHSPTALISGGTDTHLVFRPLMEKVEVKNYDAALRKITFPHRCLISCSKKRQLLLFQFAHHLELWRLGSTVATGKNGDTLPLSKNADHLLHLKTKGPENIICSCISPCGSWIAYSTVSRFFLYRLNYEHDNISLKRVSKMPAFLRSALQILFSEDSTKLFVASNQGALHIVQLSGGSFKHLHAFQPQSGTVEAMCLLAVSPDGNWLAASGTSAGVHVYNVKQLKLHCTVPAYNFPVTAMAIAPNTNNLVIAHSDQQVFEYSIPDKQYTDWSRTVQKQGFHHLWLQRDTPITHISFHPKRPMHILLHDAYMFCIIDKSLPLPNDKTLLYNPFPPTNESDVIRRRTAHAFKISKIYKPLLFMDLLDERTLVAVERPLDDIIAQLPPPIKKKKFGT
B2: NUBPL (protein, UniProt Q8TB37 39-319, looked up)
Iron-sulfur cluster transfer …: GAGSETLKQRRTQIMSRGLPKQKPIEGVKQVIVVASGKGGVGKSTTAVNLALALAANDSSKAIGLLDVDVYGPSVPKMMNLKGNPELSQSNLMRPLLNYGIACMSMGFLVEESEPVVWRGLMVMSAIEKLLRQVDWGQLDYLVVDMPPGTGDVQLSVSQNIPITGAVIVSTPQDIALMDAHKGAEMFRRVHVPVLGLVQNMSVFQCPKCKHKTHIFGADGARKLAQTLGLEVLGDIPLHLNIREASDTGQPIVFSQPESDEAKAYLRIAVEVVRRLPSPSE
B3: MCM3 (protein, UniProt P25205 2-808, looked up)
DNA replication licensing …: AGTVVLDDVELREAQRDYLDFLDDEEDQGIYQSKVRELISDNQYRLIVNVNDLRRKNEKRANRLLNNAFEELVAFQRALKDFVASIDATYAKQYEEFYVGLEGSFGSKHVSPRTLTSCFLSCVVCVEGIVTKCSLVRPKVVRSVHYCPATKKTIERRYSDLTTLVAFPSSSVYPTKDEENNPLETEYGLSVYKDHQTITIQEMPEKAPAGQLPRSVDVILDDDLVDKAKPGDRVQVVGTYRCLPGKKGGYTSGTFRTVLIACNVKQMSKDAQPSFSAEDIAKIKKFSKTRSKDIFDQLAKSLAPSIHGHDYVKKAILCLLLGGVERDLENGSHIRGDINILLIGDPSVAKSQLLRYVLCTAPRAIPTTGRGSSGVGLTAAVTTDQETGERRLEAGAMVLADRGVVCIDEFDKMSDMDRTAIHEVMEQGRVTIAKAGIHARLNARCSVLAAANPVYGRYDQYKTPMENIGLQDSLLSRFDLLFIMLDQMDPEQDREISDHVLRMHRYRAPGEQDGDAMPLGSAVDILATDDPNFSQEDQQDTQIYEKHDNLLHGTKKKKEKMVSAAFMKKYIHVAKIIKPVLTQESATYIAEEYSRLRSQDSMSSDTARTSPVTARTLETLIRLATAHAKARMSKTVDLQDAEEAVELVQYAYFKKVLEKEKKRKKRSEDESETEDEEEKSQEDQEQKRKRRKTRQPDAKDGDSYDPYDFSDTEEEMPQVHTPKTADSQETKESQKVELSESRLKAFKVALLDVFREAHAQSIGMNRLTESINRDSEEPFSSVEIQAALSKMQDDNQVMVSEGIIFLI
B4: SSR3 (protein, UniProt Q9UNL2 1-185, looked up)
Translocon-associated protein …: MAPKGSSKQQSEEDLLLQDFSRNLSAKSSALFFGNAFIVSAIPIWLYWRIWHMDLIQSAVLYSVMTLVSTYLVAFAYKNVKFVLKHKVAQKREDAVSKEVTRKLSEADNRKMSRKEKDERILWKKNEVADYEATTFSIFYNNTLFLVVVIVASFFILKNFNPTVNYILSISASSGLIALLSTGSK
B5: WDR75 (protein, UniProt Q8IWA0 1-830, looked up)
WD repeat-containing protein …: MVEEENIRVVRCGGSELNFRRAVFSADSKYIFCVSGDFVKVYSTVTEECVHILHGHRNLVTGIQLNPNNHLQLYSCSLDGTIKLWDYIDGILIKTFIVGCKLHALFTLAQAEDSVFVIVNKEKPDIFQLVSVKLPKSSSQEVEAKELSFVLDYINQSPKCIAFGNEGVYVAAVREFYLSVYFFKKKTTSRFTLSSSRNKKHAKNNFTCVACHPTEDCIASGHMDGKIRLWRNFYDDKKYTYTCLHWHHDMVMDLAFSVTGTSLLSGGRESVLVEWRDATEKNKEFLPRLGATIEHISVSPAGDLFCTSHSDNKIIIIHRNLEASAVIQGLVKDRSIFTGLMIDPRTKALVLNGKPGHLQFYSLQSDKQLYNLDIIQQEYINDYGLIQIELTKAAFGCFGNWLATVEQRQEKETELELQMKLWMYNKKTQGFILNTKINMPHEDCITALCFCNAEKSEQPTLVTASKDGYFKVWILTDDSDIYKKAVGWTCDFVGSYHKYQATNCCFSEDGSLLAVSFEEIVTIWDSVTWELKCTFCQRAGKIRHLCFGRLTCSKYLLGATENGILCCWNLLSCALEWNAKLNVRVMEPDPNSENIAAISQSSVGSDLFVFKPSEPRPLYIQKGISREKVQWGVFVPRDVPESFTSEAYQWLNRSQFYFLTKSQSLLTFSTKSPEEKLTPTSKQLLAEESLPTTPFYFILGKHRQQQDEKLNETLENELVQLPLTENIPAISELLHTPAHVLPSAAFLCSMFVNSLLLSKETKSAKEIPEDVDMEEEKESEDSDEENDFTEKVQDTSNTGLGEDIIHQLSKSEEKELRKFRKIDYSWIAAL
B6: RCN2 (protein, UniProt Q14257 23-317, looked up)
Reticulocalbin-2: GKAEELHYPLGERRSDYDREALLGVQEDVDEYVKLGHEEQQKRLQAIIKKIDLDSDGFLTESELSSWIQMSFKHYAMQEAKQQFVEYDKNSDDTVTWDEYNIQMYDRVIDFDENTALDDAEEESFRKLHLKDKKRFEKANQDSGPGLSLEEFIAFEHPEEVDYMTEFVIQEALEEHDKNGDGFVSLEEFLGDYRWDPTANEDPEWILVEKDRFVNDYDKDNDGRLDPQELLPWVVPNNQGIAQEEALHLIDEMDLNGDKKLSEEEILENPDLFLTSEATDYGRQLHDDYFYHDEL
B7: PREB (protein, UniProt Q9HCU5 1-417, looked up)
Guanine nucleotide-exchange …: MGRRRAPELYRAPFPLYALQVDPSTGLLIAAGGGGAAKTGIKNGVHFLQLELINGRLSASLLHSHDTETRATMNLALAGDILAAGQDAHCQLLRFQAHQQQGNKAEKAGSKEQGPRQRKGAAPAEKKCGAETQHEGLELRVENLQAVQTDFSSDPLQKVVCFNHDNTLLATGGTDGYVRVWKVPSLEKVLEFKAHEGEIEDLALGPDGKLVTVGRDLKASVWQKDQLVTQLHWQENGPTFSSTPYRYQACRFGQVPDQPAGLRLFTVQIPHKRLRQPPPCYLTAWDGSNFLPLRTKSCGHEVVSCLDVSESGTFLGLGTVTGSVAIYIAFSLQCLYYVREAHGIVVTDVAFLPEKGRGPELLGSHETALFSVAVDSRCQLHLLPSRRSVPVWLLLLLCVGLIIVTILLLQSAFPGFL
B8: CWC22 (protein, UniProt Q9HCG8 1-908, looked up)
Pre-mRNA-splicing factor …: MKSSVAQIKPSSGHDRRENLNSYQRNSSPEDRYEEQERSPRDRDYFDYSRSDYEHSRRGRSYDSSMESRNRDREKRRERERDTDRKRSRKSPSPGRRNPETSVTQSSSAQDEPATKKKKDELDPLLTRTGGAYIPPAKLRMMQEQITDKNSLAYQRMSWEALKKSINGLINKVNISNISIIIQELLQENIVRGRGLLSRSVLQAQSASPIFTHVYAALVAIINSKFPQIGELILKRLILNFRKGYRRNDKQLCLTASKFVAHLINQNVAHEVLCLEMLTLLLERPTDDSVEVAIGFLKECGLKLTQVSPRGINAIFERLRNILHESEIDKRVQYMIEVMFAVRKDGFKDHPIILEGLDLVEEDDQFTHMLPLEDDYNPEDVLNVFKMDPNFMENEEKYKAIKKEILDEGDTDSNTDQDAGSSEEDEEEEEEEGEEDEEGQKVTIHDKTEINLVSFRRTIYLAIQSSLDFEECAHKLLKMEFPESQTKELCNMILDCCAQQRTYEKFFGLLAGRFCMLKKEYMESFEGIFKEQYDTIHRLETNKLRNVAKMFAHLLYTDSLPWSVLECIKLSEETTTSSSRIFVKIFFQELCEYMGLPKLNARLKDETLQPFFEGLLPRDNPRNTRFAINFFTSIGLGGLTDELREHLKNTPKVIVAQKPDVEQNKSSPSSSSSASSSSESDSSDSDSDSSDSSSESSSEESDSSSISSHSSASANDVRKKGHGKTRSKEVDKLIRNQQTNDRKQKERRQEHGHQETRTERERRSEKHRDQNSSGSNWRDPITKYTSDKDVPSERNNYSRVANDRDQEMHIDLENKHGDPKKKRGERRNSFSENEKHTHRIKDSENFRRKDRSKSKEMNRKHSGSRSDEDRYQNGAERRWEKSSRYSEQSRESKKNQDRRREKSPAKQK
B9: CSN2 (protein, UniProt P05814 16-226, looked up)
Beta-casein: RETIESLSSSEESITEYKQKVEKVKHEDQQQGEDEHQDKIYPSFQPQPLIYPFVEPIPYGFLPQNILPLAQPAVVLPVPQPEIMEVPKAKDTVYTKGRVMPVLKSPTIPFFDPQIPKLTDLENLHLPLPLLQPLMQQVPQPIPQTLALPPQPLWSVPQPKVLPIPQQVVPYPQRAVPVQALLLNQELLLNPTHQIYPVTQPLAPVHNPISV
B10: NOC4L (protein, UniProt Q9BVI4 1-516, looked up)
Nucleolar complex protein 4 …: MEREPGAAGVRRALGRRLEAVLASRSEANAVFDILAVLQSEDQEEIQEAVRTCSRLFGALLERGELFVGQLPSEEMVMTGSQGATRKYKVWMRHRYHSCCNRLGELLGHPSFQVKELALSALLKFVQLEGAHPLEKSKWEGNYLFPRELFKLVVGGLLSPEEDQSLLLSQFREYLDYDDTRYHTMQAAVDAVARVTGQHPEVPPAFWNNAFTLLSAVSLPRREPTVSSFYVKRAELWDTWKVAHLKEHRRVFQAMWLSFLKHKLPLSLYKKVLLIVHDAILPQLAQPTLMIDFLTRACDLGGALSLLALNGLFILIHKHNLEYPDFYRKLYGLLDPSVFHVKYRARFFHLADLFLSSSHLPAYLVAAFAKRLARLALTAPPEALLMVLPFICNLLRRHPACRVLVHRPHGPELDADPYDPGEEDPAQSRALESSLWELQALQRHYHPEVSKAASVINQALSMPEVSIAPLLELTAYEIFERDLKKKGPEPVPLEFIPAQGLLGRPGELCAQHFTLS
B11: TMEM33 (protein, UniProt P57088 2-247, looked up)
Transmembrane protein 33: ADTTPNGPQGAGAVQFMMTNKLDTAMWLSRLFTVYCSALFVLPLLGLHEAASFYQRALLANALTSALRLHQRLPHFQLSRAFLAQALLEDSCHYLLYSLIFVNSYPVTMSIFPVLLFSLLHAATYTKKVLDARGSNSLPLLRSVLDKLSANQQNILKFIACNEIFLMPATVFMLFSGQGSLLQPFIYYRFLTLRYSSRRNPYCRTLFNELRIVVEHIIMKPACPLFVRRLCLQSIAFISRLAPTVP

In one data set the test system is mSWI/SNF complexes. In words: mSWI/SNF complex purification with HA-tagged baits and mass spectrometry (peptide counts). Also noted: species or system human. To be noted: 293_HA-BRD7 bait purification, mass spectrometry; total peptide count per identified protein.
B1: the Total is 1.
Still for that read-out and setting: the figure for B2 is 1.
Same read-out and setting: the figure for B3 is 1.
The same measure, in the same setting: the value for B4 was 1; that for B5 was 1; that for B6 was 1.
For B7, the Total is 1.
Still for that read-out and setting: the figure for B8 is 1; for B9 it is 1.
The same measure, in the same setting: the value for B10 was 1; that for B11 was 1.

The data set is the same for the next values; noted with them: 293_HA-BRD7 bait purification, mass spectrometry; unique peptide count per identified protein.
For B1, the Unique worked out at 1.
The same measure, in the same setting: the figure for B2 is 1; for B3 it is 1.
Molecule B4 gave a Unique of 1.
Same read-out and setting: the value for B5 was 1; that for B6 was 1.
Take B7: the Unique came to 1.
The same measure, in the same setting: the figure for B8 is 1; for B9 it is 1; for B10 it is 1.
Still for that read-out and setting: the figure for B11 is 1.
